Experimental data taken from patent US7598269B2, “Methods and compositions for treating amyloid-related diseases” (Bellus Health (International) Limited, priority 2003, dated 2009).
At least one compound was matched to its structure with a doubt left.

By UniProt entry, the sequences of proteins in these tests, tags left out. Residues count along the entry.
UniProt P05067, 672-711 limits assumed: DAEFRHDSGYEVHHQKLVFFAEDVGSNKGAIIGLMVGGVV

Columns and labels:
IAPP = target: T1, IAPP (Homo sapiens, UniProt P10997); assay: MS binding assay for IAPP; conditions: 200 μM test compound, 20 μM solubilized IAPP, pH 7.4
T1 construct: which is a 37 amino acid peptide, derived from a larger precursor peptide, called pro-IAPP
T1 sequence (P10997 34-70 limits assumed): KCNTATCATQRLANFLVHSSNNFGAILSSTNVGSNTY

Aβ1-40 = target: T2, Aβ1-40 (Homo sapiens, UniProt P05067); assay: MS binding assay for Aβ40; conditions: 200 μM test compound/20 μM Aβ40 or 400 μM/40 μM, pH 7.4
T2 construct: 200 μM of a test compound and 20 μM of solubilized Aβ40

## O=S(=O)(O)CCCN1CCC=C(c2ccccc2)C1 [Compound A, 5-phenyl-1-sulfopropyl-1,2,3,6-tetrahydropyridine]
IAPP
  MS binding IAPP: +++ (Strong Binding >75%)
Aβ1-40
  MS binding Aβ1-40: ++ (Moderate Binding 70-89%)
